Experimental findings from patent publication EP0047459A2, “Fluorescent reagent and immunofluorescent determination method” (INTERNATIONAL DIAGNOSTIC TECHNOLOGY, INC., priority 1980, dated 1982) are described below.

This series deals with Albumin. The series can be described thus: Fluorescence quenching by albumin. As to conditions: quenching effect of albumin on the fluorescence (ja/nein).

Take `Nc1ccc(-c2c3ccc(=O)cc-3oc3cc(O)ccc23)c(C(=O)O)c1` [Aminofluorescein, 5-Aminofluorescein]: the “Fluoreszenzlöschung durch Albumin” value is “ja”.

For `O=C(O)c1cc(N=C=S)ccc1-c1c2ccc(=O)cc-2oc2cc(O)ccc12` [Fluorescein-isothiocyanat, Fluoresceinisothiocyanat], the “Fluoreszenzlöschung durch Albumin” value was “ja”.
